Data reported in the supplement of paper PMC12889115.
This is one part of the list. These are raw signals, not scaled to a control.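 Primary screen: polymyxin B was added at a level permeabilizing Salmonella outer membranes while sparing inner membranes. DMSO wells, both with and without polymyxin B, established maximum growth. Plate-to-plate variation meant each plate was ranked on its own, and the lowest-OD600 compounds were selected as hits.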

Test system: Salmonella enterica serovar Typhimurium SL1344
Test: bacterial growth OD600 after 18 h with compound and polymyxin B; higher = more bacterial growth (less inhibition)
Conditions: 50 µM, Mueller-Hinton broth

Structure (SMILES)	bacterial growth OD600 (polymyxin B 1 µg/mL)	bacterial growth OD600 (polymyxin B 0.75 µg/mL)
CCN1CCN(c2ccc(-c3nc(Cc4ccc(OC)cc4)no3)cn2)CC1	0.788	
COc1ccc(C(=O)Nc2ccnn2C2CCN(Cc3ccc(C)s3)CC2)cc1		0.761
Fc1cccc(CN2CCC(C3CCN(Cc4ccncc4)C3)CC2)c1F (stereo unspecified)		0.765
CN(Cc1ccon1)CC1(O)CCCN(Cc2ccc(F)c(F)c2)C1=O (stereo unspecified)	0.885	
COc1ccc(CN2C[C@H]3OC(=O)N(Cc4ccc(OC)c(OC)c4)[C@H]3C2)cc1		0.744
Cc1c(C(C)NCc2cccn2-c2nccs2)cnn1-c1cccc(F)c1 (stereo unspecified)		0.752
Cc1ccccc1N1C(=O)CN(C(=O)c2cc3ncccn3n2)CC1C (stereo unspecified)		0.689
CC(C)n1cc(C(=O)NCc2cccnc2N(C)C)cn1	0.795	
CC(C)N(CCO)Cc1cn(-c2ccc(F)cc2)nc1-c1ccccc1Cl	0.819	
COCCOC1CCN(C(=O)c2cn(CCC3CCCCC3)nn2)CC1	0.926	
Cc1ccc2c(c1)CN(CC(=O)NC(C)c1c(C)nn(C)c1C)CC(c1ccsc1)O2 (stereo unspecified)		0.656
CCn1ccnc1CNC(=O)c1cc(Cn2ccc3ccccc32)[nH]n1	0.892	
CN1CCN(c2ncccc2CNC(=O)C(c2ccccc2)C2CCCC2)CC1 (stereo unspecified)		0.916
COC(=O)CCC(=O)N1CCC2(CCCN(Cc3ccc(F)c(F)c3)C2=O)C1 (stereo unspecified)	0.99	
COCCN(Cc1cnc(SC)nc1)CC1CCCN(C2Cc3ccccc3C2)C1 (stereo unspecified)		0.805
COc1cc2nc(-c3cc4c(c(OC)c3)OCCN(C(=O)Cc3ccccc3)C4)cc(C)c2cc1OC		0.808
CCN1CCN(C2(C(=O)N[C@@H]3C[C@H]3c3ccccc3)Cc3ccccc3C2)CC1		0.702
COc1ccc(F)c(CN2CCCC(O)(CNC3CCC3)C2=O)c1 (stereo unspecified)		0.9
CCC1(C2CCN(Cc3cccc(OC)c3O)CC2)NC(=O)N(CCc2scnc2C)C1=O (stereo unspecified)		0.998
O=C(CC(F)(F)F)N1CCc2onc(-c3ccc(F)c(F)c3)c2C1		0.817
COCCO[C@H]1[C@H](NC(=O)C(C)C)c2ccccc2C12CCN(C(=O)c1ccc(OC)cc1)CC2		0.975

2 entries from above, reformatted.
Structure (SMILES),bacterial growth OD600 (polymyxin B 1 µg/mL),bacterial growth OD600 (polymyxin B 0.75 µg/mL)
CCN1CCN(c2ccc(-c3nc(Cc4ccc(OC)cc4)no3)cn2)CC1,0.788,
COc1ccc(C(=O)Nc2ccnn2C2CCN(Cc3ccc(C)s3)CC2)cc1,,0.761
